Taken from: PubChem BioAssay AID1259254 (NCATS, 2017)
The deposit covers about 59,000 reagents; this is a random part of them. About 1,550 of all reagents (2.6%) were called active. 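G2 share is only a proxy for re-replication; each gene was hit by three separate siRNAs, and active genes were retested.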 Raw values vary from plate to plate and are shown uncorrected. Reagents against one gene are numbered here. No sequences are given here. Not given: the amount of reagent.

Assay: 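Gene knock-downs that lead to re-replication, shown by excess G2 DNA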 (primary screen)
Cells: human HCT116 colorectal cancer cells
Reagents: single siRNA against human genes
Timing: 3 days
Detection: 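Nuclei stained with Hoechst and imaged; cell-cycle phase assigned by DNA content; G2 share scaled per plate, non-targeting siRNA 0%, GMNN siRNA 100%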
Reading the numbers: G2 robust z-score and G2 cells, % of GMNN control: higher = more G2 cells, more excess DNA replication; raw share of cells in G2: higher = larger share of cells with G2 DNA content
Call rule: 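Active siRNAs have a G2 robust z of 5 or more median absolute deviations over the median, which in these data means about 38% or higher of GMNN control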

gene symbol	siRNA no.	G2 robust z-score	G2 cells, % of GMNN control	raw share of cells in G2 (%)	Call
TDRD10	1	-0.664	-1.7	1.96	inactive
TDRD10	2	0.625	7.37	6.95	inactive
TDRD10	3	3.51	27.7	11.9	inactive
PLCE1	1	-0.679	-1.81	5.13	inactive
PLCE1	2	-0.763	-2.4	3.36	inactive
PLCE1	3	0.00795	3.02	4.96	inactive
MAN1A2	1	-1.48	-7.47	3.53	inactive
MAN1A2	2	0.148	4.01	5.14	inactive
MAN1A2	3	-0.931	-3.58	4.14	inactive
RASSF6	1	1.53	13.7	12.5	inactive
RASSF6	2	-0.168	1.78	5.36	inactive
RASSF6	3	0.218	4.5	6.59	inactive
BDKRB2	1	-0.785	-2.55	4.93	inactive
BDKRB2	2	6.05	45.5	20.4	active
BDKRB2	3	0.545	6.8	5.35	inactive
LARS1	1	-1.55	-7.91	2.36	inactive
LARS1	2	-0.297	0.881	4.57	inactive
LARS1	3	-1.27	-5.98	1.51	inactive
CRH	1	-0.941	-3.66	2.84	inactive
CRH	2	0.259	4.79	6.67	inactive
CRH	3	7.04	52.5	24.2	active
HSD17B13	1	0.111	3.75	7.52	inactive
HSD17B13	2	0.112	3.76	6.43	inactive
HSD17B13	3	-0.471	-0.344	4.16	inactive
ZBTB16	1	0.836	8.85	6.47	inactive
ZBTB16	2	-1.56	-8.03	2.41	inactive
ZBTB16	3	-0.274	1.04	3.78	inactive
RCBTB1	1	-0.702	-1.97	3.51	inactive
RCBTB1	2	3.27	26	17.8	inactive
RCBTB1	3	-0.161	1.83	5.1	inactive
ZFP37	1	-0.767	-2.43	2.72	inactive
ZFP37	2	0.186	4.28	7.89	inactive
ZFP37	3	-0.467	-0.316	3.21	inactive
LYZL6	1	0.797	8.58	5.75	inactive
LYZL6	2	0.149	4.02	5.93	inactive
LYZL6	3	0.902	9.31	8.91	inactive
ZNF350	1	0.309	5.14	4.61	inactive
ZNF350	2	-0.614	-1.35	5.3	inactive
ZNF350	3	0.32	5.22	5.27	inactive
MYL2	1	-0.282	0.984	3.52	inactive
MYL2	2	-0.144	1.95	6.12	inactive
MYL2	3	-1.06	-4.52	3.68	inactive
FGF21	1	-0.901	-3.37	2.12	inactive
FGF21	2	2.03	17.2	10.9	inactive
FGF21	3	-0.156	1.87	4.75	inactive
TIMM8B	1	-0.0168	2.85	4.92	inactive
TIMM8B	2	-0.403	0.133	4.23	inactive
TIMM8B	3	-0.0998	2.27	7.19	inactive
CCNC	1	2.07	17.5	10.5	inactive
CCNC	2	-1.04	-4.36	3.52	inactive
CCNC	3	-1.62	-8.42	1.85	inactive
SLITRK2	1	1.74	15.2	11.8	inactive
SLITRK2	2	-0.663	-1.7	4.16	inactive
SLITRK2	3	1.58	14.1	9.29	inactive
GYPB	1	2.3	19.1	11.1	inactive
GYPB	2	2.01	17.1	10.2	inactive
GYPB	3	3.96	30.8	19.8	inactive
TSPYL4	1	0.816	8.71	8.4	inactive
TSPYL4	2	-0.17	1.77	4.87	inactive
TSPYL4	3	-0.514	-0.649	2.93	inactive
PPP2CB	1	1	10	8.06	inactive
PPP2CB	2	-0.198	1.58	4.78	inactive
PPP2CB	3	-1.16	-5.21	1.93	inactive
KRTAP9-9	1	-0.055	2.58	3.74	inactive
KRTAP9-9	2	5.16	39.3	20.8	active
KRTAP9-9	3	0.838	8.86	5.78	inactive
ISG20L2	1	2.73	22.2	11.5	inactive
ISG20L2	2	0.135	3.92	4.62	inactive
ISG20L2	3	0.239	4.65	3.82	inactive
FBXO44	1	1.59	14.2	9.84	inactive
FBXO44	2	0.31	5.15	8.06	inactive
FBXO44	3	-0.352	0.491	5.18	inactive
ANKRD65	1	1.41	12.9	8.6	inactive
ANKRD65	2	-0.225	1.38	3.94	inactive
ANKRD65	3	3.94	30.7	13.5	inactive
DMWD	1	0.942	9.6	9.8	inactive
DMWD	2	-0.0527	2.6	5.04	inactive
DMWD	3	4.48	34.5	17	inactive
NIPA2	1	0.865	9.05	9.2	inactive
NIPA2	2	-0.92	-3.5	2.93	inactive
NIPA2	3	-0.884	-3.25	3.58	inactive
PGLYRP1	1	-1.23	-5.68	2.67	inactive
PGLYRP1	2	-0.225	1.38	5.75	inactive
PGLYRP1	3	-0.912	-3.45	2.97	inactive
PTGER4	1	0.92	9.44	9.22	inactive
PTGER4	2	0.164	4.12	5.96	inactive
PTGER4	3	1.34	12.4	7.08	inactive

Copied from the list:
DMWD #3, G2 robust z-score → 4.48
For “Call”, PGLYRP1 #1 reads inactive
PLCE1 #2, G2 robust z-score = -0.763
TDRD10 #2, G2 robust z-score: 0.625
For “G2 cells, % of GMNN control”, FBXO44 #2 has 5.15
